Test results reported in PMC12166272.
These are yes or no findings as the source states them, for the method shown. In cells and extracts the contact can be indirect. Some results given as binding are weak or reduced against the parent protein; the word gives no strength. For some assays here: Where a sequence is shown, tags or fusion partners need not be part of it. Each block holds one binder with its values, some of them ahead of it.

How the values were obtained:
[1] = target: T1, NEURL3 (construct of the experiments of Figure S1; tag not told) (human) (UniProt Q96EH8); assay: co-IP; whole-cell extracts of transfected cells (HEK293T) 24 h after transfection, NP-40 lysis buffer; antibody with Protein A/G beads 4 h at 4°C; washed with PBS with 0.1% NP40; immunoblot
T1 sequence: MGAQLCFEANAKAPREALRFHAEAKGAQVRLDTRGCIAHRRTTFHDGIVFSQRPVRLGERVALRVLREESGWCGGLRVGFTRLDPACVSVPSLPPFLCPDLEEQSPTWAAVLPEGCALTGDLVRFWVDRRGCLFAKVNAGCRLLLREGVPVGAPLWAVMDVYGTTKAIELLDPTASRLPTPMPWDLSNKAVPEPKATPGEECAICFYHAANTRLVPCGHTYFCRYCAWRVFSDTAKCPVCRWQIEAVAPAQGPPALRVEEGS

[2] = target: T2, FLAG-IRF7 (interferon regulatory factor 7, full-length) (UniProt Q92985); assay: as above
T2 sequence: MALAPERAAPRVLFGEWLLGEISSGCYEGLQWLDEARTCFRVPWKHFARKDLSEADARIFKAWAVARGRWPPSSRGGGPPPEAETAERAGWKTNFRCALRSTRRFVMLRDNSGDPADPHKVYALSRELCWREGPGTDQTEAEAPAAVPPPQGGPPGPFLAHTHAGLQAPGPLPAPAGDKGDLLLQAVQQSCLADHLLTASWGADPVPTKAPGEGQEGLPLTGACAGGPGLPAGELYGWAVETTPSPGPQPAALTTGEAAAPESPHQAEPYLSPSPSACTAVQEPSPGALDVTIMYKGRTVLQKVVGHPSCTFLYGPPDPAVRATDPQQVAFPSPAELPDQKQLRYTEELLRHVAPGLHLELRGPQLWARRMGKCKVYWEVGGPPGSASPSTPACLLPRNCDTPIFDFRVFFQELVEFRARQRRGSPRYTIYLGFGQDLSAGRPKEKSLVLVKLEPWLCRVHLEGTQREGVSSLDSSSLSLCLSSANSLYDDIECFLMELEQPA

FLAG-NEURL3 (human) = target: T3, FLAG-NEURL3 (human) (UniProt Q96EH8); assay: as above
T3 sequence: T1 sequence

[3] = target: T4, endogenous IRF7 of murine liver (mouse (endogenous in murine liver tissue)) (UniProt P70434); assay: co-IP; endogenous IRF7 immunoprecipitated from lysates of virus-infected murine liver tissue with an anti-IRF7 monoclonal antibody or rabbit IgG; western blot with anti-NEURL3 and anti-IRF7
T4 sequence: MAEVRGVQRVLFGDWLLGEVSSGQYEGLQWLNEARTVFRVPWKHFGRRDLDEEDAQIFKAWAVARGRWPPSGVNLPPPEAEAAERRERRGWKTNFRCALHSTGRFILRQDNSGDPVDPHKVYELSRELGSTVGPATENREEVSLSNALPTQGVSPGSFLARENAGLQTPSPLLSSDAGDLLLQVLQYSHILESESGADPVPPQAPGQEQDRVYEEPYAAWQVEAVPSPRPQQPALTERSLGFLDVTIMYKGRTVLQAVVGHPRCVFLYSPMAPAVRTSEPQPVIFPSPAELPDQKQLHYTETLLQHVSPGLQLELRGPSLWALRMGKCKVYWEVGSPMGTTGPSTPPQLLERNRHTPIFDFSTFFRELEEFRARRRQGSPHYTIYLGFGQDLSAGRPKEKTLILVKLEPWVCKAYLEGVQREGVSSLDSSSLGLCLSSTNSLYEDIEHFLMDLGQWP

B2: HA-NEURL3 (protein, UniProt Q96EH8 1-262)
chain: T1 sequence
binding [2]: binds

B3: HA-IRF7 (protein, UniProt Q92985 1-503)
chain: T2 sequence
binding (FLAG-NEURL3 (human)): binds

B6: IRF1 (protein, UniProt P10914 1-325)
chain: MPITRMRMRPWLEMQINSNQIPGLIWINKEEMIFQIPWKHAAKHGWDINKDACLFRSWAIHTGRYKAGEKEPDPKTWKANFRCAMNSLPDIEEVKDQSRNKGSSAVRVYRMLPPLTKNQRKERKSKSSRDAKSKAKRKSCGDSSPDTFSDGLSSSTLPDDHSSYTVPGYMQDLEVEQALTPALSPCAVSSTLPDWHIPVEVVPDSTSDLYNFQVSPMPSTSEATTDEDEEGKLPEDIMKLLEQSEWQPTNVDGKGYLLNEPGVQPTSVYGDFSCKEEPEIDSPGGDIGLSLQRVFTDLKNMDATWLDSLLTPVRLPSIQAIPCAP
binding [1]: binds weakly

Further lines, results first:

binding [1]: binds weakly
B1: IRF8 (protein, UniProt Q02556 1-426)
chain: MCDRNGGRRLRQWLIEQIDSSMYPGLIWENEEKSMFRIPWKHAGKQDYNQEVDASIFKAWAVFKGKFKEGDKAEPATWKTRLRCALNKSPDFEEVTDRSQLDISEPYKVYRIVPEEEQKCKLGVATAGCVNEVTEMECGRSEIDELIKEPSVDDYMGMIKRSPSPPEACRSQLLPDWWAQQPSTGVPLVTGYTTYDAHHSAFSQMVISFYYGGKLVGQATTTCPEGCRLSLSQPGLPGTKLYGPEGLELVRFPPADAIPSERQRQVTRKLFGHLERGVLLHSSRQGVFVKRLCQGRVFCSGNAVVCKGRPNKLERDEVVQVFDTSQFFRELQQFYNSQGRLPDGRVVLCFGEEFPDMAPLRSKLILVQIEQLYVRQLAEEAGKSCGAGSVMQAPEEPPPDQVFRMFPDICASHQRSFFRENQQITV

binding [1]: binds
B4: IRF7 (construct of the experiments of Figure S1; tag not told) (protein, UniProt Q92985 1-503)
chain: T2 sequence

binding [1]: binds weakly
B5: IRF4 (protein, UniProt Q15306 1-451)
chain: MNLEGGGRGGEFGMSAVSCGNGKLRQWLIDQIDSGKYPGLVWENEEKSIFRIPWKHAGKQDYNREEDAALFKAWALFKGKFREGIDKPDPPTWKTRLRCALNKSNDFEELVERSQLDISDPYKVYRIVPEGAKKGAKQLTLEDPQMSMSHPYTMTTPYPSLPAQQVHNYMMPPLDRSWRDYVPDQPHPEIPYQCPMTFGPRGHHWQGPACENGCQVTGTFYACAPPESQAPGVPTEPSIRSAEALAFSDCRLHICLYYREILVKELTTSSPEGCRISHGHTYDASNLDQVLFPYPEDNGQRKNIEKLLSHLERGVVLWMAPDGLYAKRLCQSRIYWDGPLALCNDRPNKLERDQTCKLFDTQQFLSELQAFAHHGRSLPRFQVTLCFGEEFPDPQRQRKLITAHVEPLLARQLYYFAQQNSGHFLRGYDLPEHISNPEDYHRSIRHSSIQE

binding [1]: binds weakly
B7: IRF9 (protein, UniProt Q00978 1-393)
chain: MASGRARCTRKLRNWVVEQVESGQFPGVCWDDTAKTMFRIPWKHAGKQDFREDQDAAFFKAWAIFKGKYKEGDTGGPAVWKTRLRCALNKSSEFKEVPERGRMDVAEPYKVYQLLPPGIVSGQPGTQKVPSKRQHSSVSSERKEEEDAMQNCTLSPSVLQDSLNNEEEGASGGAVHSDIGSSSSSSSPEPQEVTDTTEAPFQGDQRSLEFLLPPEPDYSLLLTFIYNGRVVGEAQVQSLDCRLVAEPSGSESSMEQVLFPKPGPLEPTQRLLSQLERGILVASNPRGLFVQRLCPIPISWNAPQAPPGPGPHLLPSNECVELFRTAYFCRDLVRYFQGLGPPPKFQVTLNFWEESHGSSHTPQNLITVKMEQAFARYLLEQTPEQQAAILSLV

binding [3]: binds
B8: endogenous NEURL3 of murine liver (protein, UniProt Q8CJC5 1-254)
chain: MGSLLSPEANAEVPREALSFHGNATGAQVHLDDQRSTARRRSTFHDGIVFSQRPVWPGERVALRVLRHEEGWCGGLRVGFTRLDPAQVAASCLPPFVCPDLEEQSPTWAALLPEGFVRAGNVVCFWVNRRGWLFAKVNAGRPLLLRKDVLVQGAPLWAVMDVYGTTKAIELLDPKANAWIRSGEPVPESEVISGEECVICFHNTANTRLMPCGHSHFCGSCAWHIFKDTARCPICRWQIEEVAVVSSLKAEEGS
